Results from PubChem BioAssay AID493014 (National Center for Advancing Translational Sciences (NCATS), 2011).
This is one part of the list. The main result of the screen is listed elsewhere. These columns were measured beside it and carry no call. Most of these compounds were active or inconclusive in the main read-out, so they are no random draw. Potencies come from curve fits of mixed quality, noted in brackets.

assay: qHTS Assay to Find Inhibitors of Chronic Active B-Cell Receptor Signaling; conditions: ABC-DLBCL IkBa-CBG/CBR reporter, luminescence ratio (green luciferase fused to IkBa over red control in TMD8 lymphoma cells), 4 h; measured here: CBR red luminescence, cell number
Procedure, shortened: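 Cell line TMD8 (human ABC DLBCL), stably expressing tet-inducible CBG68-IkBa fusion and CBR; IMDM/0.5% FBS; cpd up to 46 uM; dox induction, 4 h, 37C/5% CO2; dual luminescence; green/red ratio; MG132 control.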

SMILES | AC50
O=C1CCCN1c1ccc(C(=O)N(Cc2nnc(-c3ccccc3Cl)o2)C2CC2)cc1 | 10.3 µM [falling, partial curve, poor fit]
O=C(NC(Cc1ccccc1)C(=O)O)/C(=C\c1ccc(Br)cc1)NC(=O)c1ccc(Br)o1 (stereo unspecified) | 6.31 µM [falling, single point]
O=C(CSc1nc(=O)n(Cc2ccncc2)c2c1CCC2)Nc1ccc(F)cc1F | 7.94 µM [rising, partial curve, poor fit]
CCN(CC)c1nc(C#N)cc(-c2ccc(OC)cc2)n1 | 2.82 µM [rising, full curve]
CN(C)c1ccc(N2CC(C)(C)C2=O)cc1 | 10 µM [rising, single point]
COc1ccc(-c2c(C#Cc3ccsc3)c3cc(-c4ccc(OC)nc4)ccc3n2C)cc1 | 29.1 µM [falling, single point]
O=C(NC(=S)NCCC1=CCCCC1)c1ccc(Br)o1 | 35.5 µM [rising, single point]
Cc1cccc(CNc2ncnc3ccc(-c4ccc5c(ccn5C)c4)cc23)c1 | 29.1 µM [falling, single point]
CSCCC(NC(=O)c1ccc(Cl)c([N+](=O)[O-])c1)C(=O)N1CCN(C/C=C/c2ccccc2)CC1 (stereo unspecified) | 23.1 µM [falling, single point]
N#Cc1c(N)nc(SCC(=O)OCc2ccccc2)c(C#N)c1-c1ccco1 | 5.62 µM [falling, partial curve, poor fit]
O=C(CCN1C(=O)c2ccccc2C1=O)OCN1C(=O)c2ccccc2C1=O | 2.91 µM [rising, partial curve]
O=C1c2ccccc2C(Nc2ccc(F)c(Cl)c2)N1Cc1ccco1 (stereo unspecified) | 14.6 µM [falling, partial curve]
COc1ccc(-c2nc(CN3CCN(c4ncnc5ccccc45)CC3)c(C)o2)c(OC)c1 | 35.5 µM [falling, single point]
NS(=O)(=O)c1cccc(NC(=O)COC(=O)COc2ccc3ccccc3c2)c1 | 0.112 µM [falling, full curve, poor fit]
O=C(Nc1ccccc1Cl)c1cc2ccccc2o/c1=N\O | 3.98 µM [falling, full curve]
O=C(NCCCN1CCOCC1)c1ccc2c(c1)N(Cc1cccc(Cl)c1)C(=O)c1ccccc1S2 | 35.5 µM [falling, single point]
O=C(/C=C/c1cccs1)Nc1ccncc1 | 20.6 µM [falling, partial curve]
COc1ccc([C@H]2CC(=O)C=C(c3ccc4[nH]ccc4c3)C2)cc1OC | 23.1 µM [falling, single point]
O=c1c2c(nc3c(-c4ccccc4)c[nH]n13)CCCC2 | 5.8 µM [falling, full curve, poor fit]
CCC(=O)N1CCN(c2nc(-c3ccccc3)c3c(c2C#N)CCCC3)CC1 | 0.164 µM [falling, full curve, poor fit]
COc1ccc(Cl)cc1C(=O)NNC(=O)C1COc2ccccc2O1 (stereo unspecified) | 3.55 µM [rising, full curve]

A second format for part of the listing above:
O=C1c2ccccc2C(Nc2ccc(F)c(Cl)c2)N1Cc1ccco1 (stereo unspecified)
  AC50: 14.6 µM [falling, partial curve]
COc1ccc(-c2nc(CN3CCN(c4ncnc5ccccc45)CC3)c(C)o2)c(OC)c1
  AC50: 35.5 µM [falling, single point]

Further entries

SMILES | AC50
O=C(Nc1ccc(F)c(F)c1)c1ccco1 | 35.5 µM [falling, partial curve, poor fit]
O=C(NCC(c1ccco1)N1CCCC1)c1ccccc1Sc1ccc(C(F)(F)F)cc1[N+](=O)[O-] (stereo unspecified) | 16.4 µM [falling, single point]
CC(=O)c1ccc(S(=O)(=O)Nc2ccc(-c3ccc4nnc(C)n4n3)cc2)cc1 | 4.47 µM [rising, full curve]
CCCCNS(=O)(=O)c1ccc(NC(=O)C2c3ccccc3Oc3ccccc32)cc1 | 29.1 µM [rising, single point]
COc1ccc2[nH]c(C(=O)O)c(CCNC(C)=O)c2c1 | 20 µM [falling, single point]
Oc1cccc(C=Nc2cccc3ccccc23)c1O | 11.2 µM [rising, partial curve]
O=C(CCCc1nc2ccccc2s1)NNC(=O)CCN1CCN(Cc2ccccc2)CC1 | 0.794 µM [rising, full curve, poor fit]
Cc1ccc(Nc2c(-c3ccccn3)nc3cc(C)ccn23)cc1 | 11.2 µM [falling, single point]
COc1ccc(CCNC(=O)CSc2cn(Cc3cccc(C)c3)c3ccccc23)cc1OC | 32.6 µM [falling, single point]
COC(=O)COc1ccc(S(=O)(=O)Nc2cc([N+](=O)[O-])ccc2C)cc1 | 35.5 µM [falling, single point]
CC(=O)Nc1ccc(S(=O)(=O)N[C@@H](C)C(=O)OCC(=O)NC2CCCC2)cc1 | 3.66 µM [rising, partial curve, poor fit]
CCC1CCCCN1C(=O)CN1C(=O)c2ccccc2S1(=O)=O (stereo unspecified) | 11.6 µM [rising, partial curve]
CCOC(=O)c1ccc(NS(=O)(=O)N2CCCCCC2)cc1 | 7.31 µM [falling, single point]
O=C(C1COc2ccccc2O1)N1CCN(c2ccccc2O)CC1 (stereo unspecified) | 32.6 µM [rising, single point]
CCn1c(=O)c(C(=O)NCc2ccc(OC)cc2)c(O)c2ccccc21 | 29.1 µM [rising, single point]
CCC(CCC(=O)Nc1ccn(-c2ccccc2)n1)C(=O)O (stereo unspecified) | 29.1 µM [falling, partial curve, poor fit]
CN(C)C(=S)SCC(=O)Nc1cccc(C(F)(F)F)c1 | 3.66 µM [rising, full curve, poor fit]
CCOC(=O)/C(=C/c1ccc(OC(=O)c2ccncc2)cc1)C(C)=O | 7.08 µM [falling, partial curve]
Cn1nnnc1SCC(=O)Nc1nc2ccccc2s1 | 22.4 µM [falling, single point]
Cc1cc(-c2[nH]nc3c2C(c2ccsc2)C(C#N)=C(N)O3)c(C)s1 (stereo unspecified) | 7.31 µM [falling, partial curve, poor fit]
